Measurements taken from US9579364B2, “Methods for treating benign prostatic hypertrophy (BPH)” (New York University, priority 2002, dated 2017).
At least one structure is not confirmed: it was looked up by name or label, or the drawing left a doubt.

Legend:
[1] = system: prostate of estradiol-treated male Wistar rats; experiment: Estradiol-treated male Wistar rat model of BPH; format: in vivo; details: older eugonadal male Wistar rats, FIG. 8
Description: To evaluate further the efficacy of somatostatin 14 (SS-14) in the treatment of BPH and related urinary tract obstruction, the present inventors used an animal model system in which prostate hyperplasia, together with prostatitis is induced by administration of estradiol to male Wistar rats. The estradiol-treated Wistar rat animal model system was originally described by Robinette (1988, The Prostate 12:271-286; the content of which is incorporated herein in its entirety) as offering an animal model of the inflammation and fibromuscular growth observed in human BPH. […]
Three month old Wistar rats were treated for 2 weeks with 1-cm long 0.078 i.d.×0.125 o.d. […] A total of four animals were analyzed per group. […]
The effect on total area of prostate occupied by glands was also assessed. To determine whether SS-14 would have an inhibitory effect on the glandular component of the prostate, the area of the organ occupied by glands in transverse sections, including the urethra and cut at the level at which the width of the prostate was maximal, was measured. Gland area is expressed as it relates to the total area of the organ in transverse sections.
The effect of SS-14 on the Fibromuscular Compartment surrounding the Urethra was also evaluated. […]

[2] = system: prostate of old Wistar rats; details: from 27%, p less than 0.01; cited from earlier work

Question: With C[C@]12CC[C@@H]3c4ccc(O)cc4CC[C@H]3[C@@H]1CC[C@@H]2O [E2, estradiol] as the compound, how does the “development of prostate hyperplasia (inflammation and fibromuscular growth)” value [1] read?
Answer: Its value is “stimulated development of prostate hyperplasia”.

Question: What about the incidence of prostatitis [2] of the same compound?
Answer: Its incidence of prostatitis is 100%.
